This passage reports binding results from paper PMC7448276.

The chains behind the UniProt entries cited, without tags or fusion partners. Where a name states a change or a piece, a line headed by the entry shows the natural chain unless it says otherwise.
UniProt O05574: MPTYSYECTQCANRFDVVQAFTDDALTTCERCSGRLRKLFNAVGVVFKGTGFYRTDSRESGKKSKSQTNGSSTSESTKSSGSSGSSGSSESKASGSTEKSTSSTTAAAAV
UniProt P9WMJ9: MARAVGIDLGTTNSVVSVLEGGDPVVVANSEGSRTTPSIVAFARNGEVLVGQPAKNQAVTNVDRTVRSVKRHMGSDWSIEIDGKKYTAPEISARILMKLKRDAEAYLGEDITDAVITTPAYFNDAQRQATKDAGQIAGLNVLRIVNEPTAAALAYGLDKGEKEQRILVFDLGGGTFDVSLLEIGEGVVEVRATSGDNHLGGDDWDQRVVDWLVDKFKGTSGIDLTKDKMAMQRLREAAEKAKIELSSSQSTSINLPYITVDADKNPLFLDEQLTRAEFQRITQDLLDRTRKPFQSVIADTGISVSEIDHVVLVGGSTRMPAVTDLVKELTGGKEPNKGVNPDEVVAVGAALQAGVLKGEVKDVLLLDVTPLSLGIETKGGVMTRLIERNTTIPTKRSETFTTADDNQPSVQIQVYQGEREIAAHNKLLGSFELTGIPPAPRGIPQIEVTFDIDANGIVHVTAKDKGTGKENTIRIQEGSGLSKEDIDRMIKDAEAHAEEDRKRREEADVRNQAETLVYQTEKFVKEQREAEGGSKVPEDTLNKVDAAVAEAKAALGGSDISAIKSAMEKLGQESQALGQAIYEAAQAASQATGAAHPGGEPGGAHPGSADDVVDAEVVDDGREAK

Results are given in words; binding and its absence hold for the method and conditions named. Binding seen in cells or lysates may run through a third protein. Binding calls can cover weak binding; strength is not graded here.

The target in the assay is Ruc with a C-terminal hexahistidine-FLAG tandem affinity purification tag (RucTAP) (M. tuberculosis) (UniProt O05574). Put plainly: pull-down.

Consider “M. tuberculosis DnaK (from UniProt P9WMJ9 1-625)”, for which the binding result was “binds”.
